Results on one substance are retold here after article doi:10.1101/2022.02.24.481761.

Chains of the proteins cited; added tags and fusions are not shown. Residues count along the entry.
UniProt P21802, residues 22-377: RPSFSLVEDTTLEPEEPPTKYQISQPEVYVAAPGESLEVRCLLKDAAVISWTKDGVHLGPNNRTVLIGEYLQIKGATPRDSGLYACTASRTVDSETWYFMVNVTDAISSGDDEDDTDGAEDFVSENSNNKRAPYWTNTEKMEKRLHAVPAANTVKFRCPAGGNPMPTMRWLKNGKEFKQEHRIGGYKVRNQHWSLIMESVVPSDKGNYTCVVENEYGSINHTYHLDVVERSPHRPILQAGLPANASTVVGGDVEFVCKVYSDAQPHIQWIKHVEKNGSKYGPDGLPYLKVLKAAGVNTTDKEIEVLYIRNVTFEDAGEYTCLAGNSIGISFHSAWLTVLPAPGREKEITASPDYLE

Results are given in words; binding and its absence hold for the method and conditions named. Some results given as binding are weak or reduced against the parent protein; the word gives no strength.

The target of the assay is T1, aminoacyl-tRNA synthetase-interacting multifunctional protein1 (AIMP1), recombinant protein (UniProt Q12904).
T1 sequence: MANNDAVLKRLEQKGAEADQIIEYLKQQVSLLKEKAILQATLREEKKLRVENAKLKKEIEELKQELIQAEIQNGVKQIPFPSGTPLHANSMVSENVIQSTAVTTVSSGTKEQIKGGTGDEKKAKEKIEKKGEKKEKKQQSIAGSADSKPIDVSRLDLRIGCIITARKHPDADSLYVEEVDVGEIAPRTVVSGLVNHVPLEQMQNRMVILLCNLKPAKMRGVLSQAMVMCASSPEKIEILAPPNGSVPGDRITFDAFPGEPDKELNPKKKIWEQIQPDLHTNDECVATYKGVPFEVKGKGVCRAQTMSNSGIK
The experiment in a line: ELISA. (ELISA stands for enzyme-linked immunosorbent assay.)

Consider “FGFR2-flag recombinant protein (from UniProt P21802 22-377) (receptor)”, for which the binding result was “binds”.
